Test results: publication PMC8953949, “Identifying Function Determining Residues in Neuroimmune Semaphorin 4A” (International Journal of Molecular Sciences, 2022)
Results are given in words; binding and its absence hold for the method and conditions named. Some results given as binding are weak or reduced against the parent protein; the word gives no strength. Sequences can lack the tags named with a protein.

Sequences of proteins named here, by UniProt entry; tags and fusion partners are left off. Residues count along the entry.
UniProt Q92854, residues 22-734: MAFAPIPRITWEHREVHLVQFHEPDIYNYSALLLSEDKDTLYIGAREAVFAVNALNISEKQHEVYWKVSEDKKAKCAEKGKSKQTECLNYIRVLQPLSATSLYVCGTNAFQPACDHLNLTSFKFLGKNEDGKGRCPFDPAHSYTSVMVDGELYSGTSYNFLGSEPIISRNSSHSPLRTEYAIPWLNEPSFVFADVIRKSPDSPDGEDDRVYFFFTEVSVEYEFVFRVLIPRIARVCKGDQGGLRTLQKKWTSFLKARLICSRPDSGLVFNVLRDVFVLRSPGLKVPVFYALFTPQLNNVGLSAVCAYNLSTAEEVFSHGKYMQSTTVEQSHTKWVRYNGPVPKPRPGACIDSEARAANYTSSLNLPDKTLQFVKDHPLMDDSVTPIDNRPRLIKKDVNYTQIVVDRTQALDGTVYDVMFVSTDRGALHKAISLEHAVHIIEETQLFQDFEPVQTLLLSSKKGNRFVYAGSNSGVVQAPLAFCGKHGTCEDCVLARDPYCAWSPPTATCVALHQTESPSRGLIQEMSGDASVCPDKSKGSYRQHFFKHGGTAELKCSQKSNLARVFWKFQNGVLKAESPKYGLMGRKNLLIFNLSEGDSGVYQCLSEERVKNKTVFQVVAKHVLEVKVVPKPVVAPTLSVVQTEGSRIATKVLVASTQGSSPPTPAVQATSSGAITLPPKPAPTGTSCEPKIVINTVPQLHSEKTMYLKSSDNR

Legend:
[1] = biological target: T1, recombinant human Plexin B1 with a 6X His tag at C-terminus (human) (UniProt O43157); assay: ELISA; competition LRA ELISA; Plexin B1-His on HIS-Select nickel-coated microplates, 2 ug/mL Sema4D with increasing concentrations of Sema4A starting at 2 ug/mL; OD compared with Sema4D alone; both purified
T1 sequence: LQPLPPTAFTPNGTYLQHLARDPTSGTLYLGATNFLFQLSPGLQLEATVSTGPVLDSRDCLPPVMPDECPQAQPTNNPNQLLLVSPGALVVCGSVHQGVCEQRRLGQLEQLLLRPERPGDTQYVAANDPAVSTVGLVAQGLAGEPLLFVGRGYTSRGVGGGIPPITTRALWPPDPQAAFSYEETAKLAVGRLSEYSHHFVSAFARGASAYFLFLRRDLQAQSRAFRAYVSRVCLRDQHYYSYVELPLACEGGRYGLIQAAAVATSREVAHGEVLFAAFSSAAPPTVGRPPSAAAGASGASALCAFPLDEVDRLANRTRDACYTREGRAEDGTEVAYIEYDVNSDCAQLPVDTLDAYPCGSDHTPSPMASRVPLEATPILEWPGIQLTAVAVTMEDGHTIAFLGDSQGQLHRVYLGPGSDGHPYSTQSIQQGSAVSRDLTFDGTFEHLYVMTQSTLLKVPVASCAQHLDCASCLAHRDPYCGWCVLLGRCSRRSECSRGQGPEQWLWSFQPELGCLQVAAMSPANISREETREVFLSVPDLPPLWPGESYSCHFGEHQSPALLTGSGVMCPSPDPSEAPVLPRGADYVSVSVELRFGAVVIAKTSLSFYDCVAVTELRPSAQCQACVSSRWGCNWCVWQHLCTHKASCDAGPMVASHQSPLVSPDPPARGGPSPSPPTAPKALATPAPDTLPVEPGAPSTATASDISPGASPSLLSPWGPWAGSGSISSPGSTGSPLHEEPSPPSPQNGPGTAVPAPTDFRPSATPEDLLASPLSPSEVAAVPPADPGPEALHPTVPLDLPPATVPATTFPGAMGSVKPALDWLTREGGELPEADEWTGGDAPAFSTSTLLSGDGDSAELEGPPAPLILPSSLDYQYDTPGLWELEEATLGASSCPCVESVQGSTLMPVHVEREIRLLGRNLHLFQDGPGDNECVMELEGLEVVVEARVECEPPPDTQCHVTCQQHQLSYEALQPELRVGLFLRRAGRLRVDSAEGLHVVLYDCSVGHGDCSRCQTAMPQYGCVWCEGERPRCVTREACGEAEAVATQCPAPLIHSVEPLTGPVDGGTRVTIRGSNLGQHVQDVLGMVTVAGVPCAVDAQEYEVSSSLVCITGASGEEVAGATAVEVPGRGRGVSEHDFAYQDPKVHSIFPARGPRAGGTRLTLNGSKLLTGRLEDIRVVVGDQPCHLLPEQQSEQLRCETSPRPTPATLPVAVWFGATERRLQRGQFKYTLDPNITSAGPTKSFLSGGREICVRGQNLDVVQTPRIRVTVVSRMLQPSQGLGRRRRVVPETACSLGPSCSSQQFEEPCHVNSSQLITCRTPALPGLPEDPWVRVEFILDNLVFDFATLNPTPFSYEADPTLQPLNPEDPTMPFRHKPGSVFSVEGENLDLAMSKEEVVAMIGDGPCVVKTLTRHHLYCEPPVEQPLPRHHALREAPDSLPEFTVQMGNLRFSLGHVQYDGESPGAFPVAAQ

[2] = biological target: T1, recombinant human Plexin B1 with a 6X His tag at C-terminus (human); assay: ELISA; direct LRA ELISA; Plexin B1-His (10 ug/mL) captured on HIS-Select nickel-coated microplates in Tris buffer overnight, Sema4 in solution in varying doses from 2 ug/mL; both purified

binding [1]: binds | binding [2]: binds
Substance: recombinant human Sema4D-Fc (from UniProt Q92854 22-734) (Fc fusion)
